This test relates to BDF1 mice, P388 leukemia ip, median survival T/C. Nature of the test: NCI In Vivo Anticancer Drug Screen. Data for tumor model P388 Leukemia (intraperitoneal) in B6D2F1 (BDF1) mice. To be noted: T/C endpoint: median survival time, higher T/C = longer survival. In outline: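 In tumour-bearing mice, survival after compound treatment is set against the vehicle group and given as a quotient.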

Setting [1] is: dose: 100.0 mg/kg/injection, schedule: Q01DX009 (ip), vehicle: saline.
[2] abbreviates: dose: 400.0 mg/kg/injection, schedule: Q04DX003 (ip), vehicle: saline.
Where [3] appears, read: dose: 200.0 mg/kg/injection, schedule: Q01DX009 (ip), vehicle: saline with Tween-80.
[4] abbreviates: dose: 100.0 mg/kg/injection, schedule: Q01DX009 (ip), vehicle: saline with Tween-80.

The list does not hold the whole screen: it is rich in T/C values a quarter to a half above the control, in often repeated tests (any T/C) and in doses without a T/C. Further doses and runs are listed elsewhere. T/C gives the treated animals as a percentage of the vehicle group. Some doses have a count of surviving animals in place of a T/C: the source holds a T/C of zero for them, seemingly a mark for toxic or unscored doses. Some doses without a T/C left all or most animals alive at the check, yet need not have been tolerated: survival well below the control is almost never listed, so the zero probably covers shortened survival too. Survivors were counted at the toxicity check, usually on the fifth day, unless a day is given; later deaths do not show. Schedule codes are those of the source, read here as Q, the interval in days (D) or hours (H), X, the number of doses. For survival time, this PubChem deposit counts one and a half times the control or more as active, and values a quarter to a half above the control carry no call in these data; other NCI protocols may use other cut-offs. Some T/C values carry the count of animals alive at the toxicity check (mostly the fifth day); where none is given, no animal had died by that day.

Consider `CCN1CCC2(CC1)COCc1ccccc12`, for which, under “dose: 200.0 mg/kg/injection, schedule: Q04DX002 (ip), vehicle: saline with Tween-80”, the survivor count is listed as 0 of 6.
In the case of `O=c1cc(CCl)[nH]nc1CCl`, the T/C (dose: 10.0 mg/kg/injection, schedule: Q04DX003 (ip), vehicle: saline with Tween-80) was 142 % of control and the T/C (dose: 50.0 mg/kg/injection, schedule: Q04DX003 (ip), vehicle: saline with Tween-80) is 136 % of control.
`CC(C)(C)[O][Pb]([c]1ccccc1)([c]1ccccc1)[c]1ccccc1`: the T/C (dose: 0.78 mg/kg/injection, schedule: Q01DX009 (ip), vehicle: saline) was 127 % of control. The survivor count is listed as 2 of 6 (dose: 5.3 mg/kg/injection, schedule: Q01DX009 (ip), vehicle: saline); 1 of 6 (dose: 7.9 mg/kg/injection, schedule: Q01DX009 (ip), vehicle: saline); 3 of 6 (dose: 11.0 mg/kg/injection, schedule: Q04DX003 (ip), vehicle: saline); 0 of 6 (dose: 11.5 mg/kg/injection, schedule: Q01DX001 (ip), vehicle: Klucel (hydroxypropylcellulose) (HPC)); 1 of 6 (dose: 23.0 mg/kg/injection, schedule: Q01DX001 (ip), vehicle: Klucel (hydroxypropylcellulose) (HPC)).
On to `C=CCN(CC=C)P(=O)(N1CC1C)N1CC1C` (stereo not given), for which the T/C (dose: 0.8 mg/kg/injection, schedule: Q01DX009 (ip), vehicle: saline) is 126 % of control and the T/C (dose: 1.6 mg/kg/injection, schedule: Q01DX009 (ip), vehicle: saline) was 126 % of control.
As to `CS(=O)(=O)Nc1ccc(Nc2c3ccccc3nc3cc(Cl)ccc23)cc1`, the T/C is 140 % of control [5 of 6 alive] (dose: 22.0 mg/kg/injection, schedule: Q04DX003 (ip), vehicle: Klucel (hydroxypropylcellulose) (HPC)) and 145 % of control (dose: 33.0 mg/kg/injection, schedule: Q04DX003 (ip), vehicle: Klucel (hydroxypropylcellulose) (HPC)). Further, the survivor count (dose: 300.0 mg/kg/injection, schedule: Q04DX003 (ip), vehicle: saline) is given as 5 of 6.
Consider `COc1ncnc2c1c(C#N)cn2C1OC(CO)C(O)C1O` (stereo not given), for which the survivor count under setting [1] is listed as 1 of 6.
For the compound `CN1C(=O)C23CC4=CC=CC(O)C4N2C(=O)C1(CO)SS3` (stereo not given), the survivor count was 2 of 3 (dose: 1.5 mg/kg/injection, schedule: Q01DX009 (ip), vehicle: saline with Tween-80) and 3 of 3 (dose: 3.0 mg/kg/injection, schedule: Q01DX009 (ip), vehicle: saline with Tween-80).
For the compound `COc1cc2cc(c1Cl)N(C)C(=O)CC(OC(=O)C(C)C)C1(C)OC1C(C)C1CC(O)(NC(=O)O1)C(OC)/C=C/C=C(/C)C2OC(C)=O` (stereo not given), the T/C runs as follows: (dose: 0.1 micrograms/kg/injection, schedule: Q01DX009 (ip), vehicle: saline + alcohol) 125 % of control; (dose: 0.2 micrograms/kg/injection, schedule: Q01DX009 (ip), vehicle: saline + alcohol) 125 % of control; (dose: 0.4 micrograms/kg/injection, schedule: Q01DX009 (ip), vehicle: saline + alcohol) 133 % of control; (dose: 0.8 micrograms/kg/injection, schedule: Q01DX009 (ip), vehicle: saline + alcohol) 137 % of control. Also, where the note is “dose: 50.0 micrograms/kg/injection, schedule: Q01DX009 (ip), vehicle: saline + alcohol”, the survivor count was 6 of 6.
`COc1cccc2c1C(=O)c1c(O)c3c(c(O)c1C2=O)C[C@@](O)(C(C)O)C[C@@H]3OC1CC(N(Cc2ccccc2)Cc2ccccc2)C(O)C(C)O1` (stereo not given in full): the T/C (dose: 10.0 mg/kg/injection, schedule: Q01DX009 (ip), vehicle: water) was 130 % of control.
Turning to `CC1(c2cccs2)C(=O)N(Cl)C(=O)N1Cl` (stereo not given), where the note is “dose: 50.0 mg/kg/injection, schedule: Q04DX003 (ip), vehicle: saline”, the T/C was 127 % of control. Also, the survivor count reads like this: (dose: 200.0 mg/kg/injection, schedule: Q04DX003 (ip), vehicle: saline) 6 of 6; (dose: 400.0 mg/kg/injection, schedule: Q01DX009 (ip), vehicle: saline) 2 of 6; under setting [2], 2 of 6.
As to `O=C(Oc1ccc([N+](=O)[O-])cc1)c1ccc(CBr)cc1`, the survivor count is, setting by setting: under setting [1], 4 of 6; under setting [2], 3 of 6.
Consider `COc1ccc(N/N=C(\C)C2(O)Cc3c(O)c4c(c(O)c3C(OC3CC(N)C(O)C(C)O3)C2)C(=O)c2c(OC)cccc2C4=O)cc1` (stereo not given), for which the T/C (dose: 2.88 mg/kg/injection, schedule: Q04DX003 (ip), vehicle: water) was 137 % of control and the T/C (dose: 8.0 mg/kg/injection, schedule: Q04DX003 (ip), vehicle: water) is 141 % of control.
For `O=C1NNC2CCCCC2O1` (stereo not given), the survivor count under setting [3] is 6 of 6.
Take `O=C1C(Cl)=C(Cl)C(=O)C2=C1C1c3ccccc3C2c2ccccc21`: the T/C (dose: 100.0 mg/kg/injection, schedule: Q04DX003 (ip), vehicle: saline sonified) is 131 % of control.
For the compound `C/C(=N\NC(=S)N1CCC1)c1ccccn1`, the survivor count (dose: 50.0 mg/kg/injection, schedule: Q01DX009 (ip), vehicle: saline with Tween-80) was 2 of 6; the survivor count under setting [4] was 2 of 6; the survivor count under setting [3] is recorded as 0 of 6.
Regarding `Oc1ccc(Cl)c2cccnc12`, where the note is “dose: 100.0 mg/kg/injection, schedule: Q01DX010 (ip), vehicle: carboxymethylcellulose (CMC)”, the survivor count is given as 2 of 6.
Take `O=C(Cn1ccc(=O)[nH]c1=O)c1ccc([N+](=O)[O-])o1`: the survivor count was 3 of 6 (dose: 50.0 mg/kg/injection, schedule: Q01DX009 (ip), vehicle: saline); 0 of 6 under setting [1]; 1 of 6 (dose: 100.0 mg/kg/injection, schedule: Q04DX003 (ip), vehicle: saline); 0 of 6 (dose: 200.0 mg/kg/injection, schedule: Q01DX009 (ip), vehicle: saline).
As for `Cc1sc(C)c(CCl)c1CCl`, the T/C by setting is: (dose: 16.5 mg/kg/injection, schedule: Q01DX009 (ip), vehicle: saline with Tween-80) 125 % of control; (dose: 25.0 mg/kg/injection, schedule: Q01DX009 (ip), vehicle: saline with Tween-80) 129 % of control; (dose: 37.5 mg/kg/injection, schedule: Q01DX009 (ip), vehicle: saline with Tween-80) 133 % of control.
Turning to `CCCCC(CC)C1NCCO1` (stereo not given), the survivor count under setting [4] is on record as 6 of 6.
